# Laboratory results reported in publication PMC12040169 (PLOS Biology, 2025).
# This is one part of the list.
# Test system: T1, CTL2-GFP (C. trachomatis L2/434/Bu, GFP-expressing)
# T1 construct: L2/434/Bu, GFP-expressing
# Parameters: species or system HeLa; Intracellular C. trachomatis growth in HeLa cells, bulk GFP fluorescence relative to DMSO
# Details: bulk GFP, single well; 28.5 h, 10 µM; inhibitor
row,SMILES,% of control remaining
1,COc1ccc(C(=O)[C@@H]2CCCN(C(=O)OC(C)(C)C)C2)cc1 [CBK284308],88.9284%
2,Cc1cccc2cc(CN(Cc3cccnc3)C(=O)Nc3ccccc3Cl)c(=O)[nH]c12 [CBK108869],88.7373%
3,O=C(N[C@H]1CCN2C(=O)N(c3cccc4nsnc34)C(=O)[C@@H]2C1)c1cccs1 [CBK289543],118.54%
4,Cc1nn(CCC#N)c(C)c1CCC(=O)NCc1cn2ccccc2n1 [CBK304540],112.103%
5,Cc1ccc(C(=O)O)cc1S(=O)(=O)N1CCC(C(=O)O)CC1 [CBK267327],149.328%
6,Cc1nc2sccn2c1CN(CCCN(C)C)Cc1ccco1 [CBK283199],116.032%
7,CCc1cc2c(NCc3ccccc3)ncnc2s1 [CBK057944],111.061%
8,COc1cccc(CN2CCN(S(=O)(=O)c3ccccc3[N+](=O)[O-])CC2)c1OC [CBK264162],100%
9,COc1ccc2[nH]cc(CCNC(=O)c3cncnc3)c2c1 [CBK122720],132.37%
10,Cc1noc(C)c1NC(=O)c1cc2ccccc2[nH]1 [CBK200303],179.788%
11,Cc1nc(NC(=O)Cn2c3c(c4ccccc42)CCC3)nn1C [CBK281377],141.624%
12,O=C(O)CNS(=O)(=O)c1ccc(F)cc1 [CBK034464],83.5709%
13,Cc1nc(O)cc(C2CCN(C(=O)c3scc4c3CCCC4)CC2)n1 [CBK307452],135.941%
14,Cc1noc(C)c1C(=O)N(C)Cc1cc(-c2ccncc2)no1 [CBK306677],108.02%
15,Cc1cccc(Cn2nc(C)c(NC(=O)c3ccncc3)c2C)c1 [CBK270126],109.749%
16,Cc1cc(C(F)(F)F)nc(CCNC(=O)N(Cc2ccsc2)C2CC2)n1 [CBK307468],108.325%
17,CS(=O)(=O)N1CCN(C2CCN(Cc3ccccc3)CC2)CC1 [CBK263485],100%
18,COc1ccc(Oc2cncc(OC3CCN(CCc4ccc(F)cc4)C3)n2)cc1OC (centres unmarked) [CBK084409],113.916%
19,NC(=O)CN1CC2(CCN(C(=O)OCc3ccccc3)CC2)c2ccccc21 [CBK116309],144.11%
20,CCn1c(S)nnc1CNC(=O)c1ccc(Cl)cc1Cl [CBK267152],171.391%
21,Cc1ccnn1CCC(=O)N1CCCCC1c1nc2ccccc2[nH]1 (centres unmarked) [CBK282374],108.897%
22,COc1ccc(-c2cnc(N)c(N[C@H](C)c3ccccc3)n2)c(OC)c1OC [CBK063747],103.867%
23,O=C(Nc1ccc2n(c1=O)C[C@H]1C[C@@H]2CN(C(=O)COc2ccccc2)C1)C1CCCCC1 [CBK289175],148.257%
24,CC(C)c1nn(C)c(N(C)C)c1CNCCc1cnn(C)c1 [CBK305135],111.367%
25,O=C(NCc1cccs1)c1ccc(-c2ccc(OC(F)(F)F)cc2)nc1 [CBK156221],73.3125%
26,CN(C)c1cccc2c(S(=O)(=O)n3c(=O)n(CCc4c[nH]c5ccccc45)c4ccccc43)cccc12 [CBK106511],113.3%
27,CCn1c(C2CCN(C(=O)c3ccc(C)c(Cl)c3)CC2)nn(C)c1=O [CBK307280],135.951%

row,SMILES,% of control remaining
1,CCc1nccn1CC(=O)NCC(C)n1nc(C)cc1C (centres unmarked) [CBK281638],135.135%
2,COc1ccc2c(c1)cc(C(=O)N1CCCn3cncc3C1)n2C [CBK306516],126.148%
3,O=C(Nc1c(F)cccc1F)N(Cc1cc(F)cc(F)c1)CC1CCNCC1 [CBK049795],71.084%
4,CCc1noc(CN2CCCC(c3ccc(C(=O)O)cc3)C2)n1 (centres unmarked) [CBK307102],108.045%
5,CC1CCCN(c2ccc(NC(=O)c3cccs3)cc2[N+](=O)[O-])C1 (centres unmarked) [CBK266402],106.806%
6,Cc1cc(NC(=O)Nc2cccc(Cl)c2C)no1 [CBK288245],107.118%
7,CC(C)[C@@H](CO)Nc1cc(-c2cccc(Br)c2)nc2ccnn12 [CBK037117],214.325%
8,O=C(Nc1ccc(-c2nc3ccccc3o2)c(O)c1)c1ccc(-c2cccc(Cl)c2)o1 [CBK263422],103.659%
9,COC(=O)[C@@H]1CN(C(=O)Nc2ccccc2)CCN1C(=O)C1CCCCC1 [CBK289607],133.756%
10,CCN1CC2(CCN(CCCC#N)CC2)c2ccccc21 [CBK136995],117.113%
11,COc1cccc2c3c([nH]c12)C1(CCN(CCCC#N)CC1)N(C(C)=O)CC3 [CBK039722],118.667%
12,CC(C)n1c(=O)n(CC(=O)N(C)C2CCCCC2)c2cccnc21 [CBK283695],125.15%
13,OCCN(Cc1cccnc1)Cc1cccn1-c1cccc(F)c1 [CBK283018],141.397%
14,Cn1nc([N+](=O)[O-])nc1Sc1nnnn1-c1ccc(C(=O)O)cc1 [CBK266961],101.945%
15,O=c1[nH]c2cccc(O)c2o1 [CBK048613],155.733%
16,O=S(=O)(Nc1cccc(Cl)c1)c1ccc(Cl)c(Cl)c1 [CBK044636],111.382%
17,Cc1ccc(C(=O)CN2CCC3(CC2)CC(=O)c2cc(Br)ccc2O3)cc1 [CBK162266],119.495%
18,CS(=O)(=O)c1nsc(Cl)n1 [CBK007229],100.368%
19,COc1ccccc1/C=C/CN1CCNC(=O)C1CC(=O)O (centres unmarked) [CBK269845],117.122%
20,CN(C)c1ncnc2[nH]ncc12 [CBK016810],92.937%
21,COc1ccc(CN2CCN(S(=O)(=O)c3ccc(Cl)cc3)CC2)cc1OC [CBK264204G],86.2824%
22,CCc1cc(C(=O)OC)c(NC(=S)Nc2nc3cc(C)c(C)cc3s2)s1 [CBK267116],185.797%
23,O=C(c1cccs1)N(Cc1ccco1)c1ccc(O)cc1 [CBK269256],123.573%
24,Cc1nn(CC(=O)N2CCCCC2C)c(=O)c2cc3occc3n12 (centres unmarked) [CBK283622],127.733%
25,CC(=O)Nc1ccc(S(=O)(=O)N2CCN(C/C=C/c3ccccc3)CC2)cc1 [CBK261545],78.794%
26,CCn1ncc(CN2C3CCC2CC(O)(c2cccc(F)c2)C3)c1C (centres unmarked) [CBK282754],127.177%
27,Cc1ccccc1C(=O)NC(=S)Nc1sc2c(c1C#N)CCCC2 [CBK264403],100%

row,SMILES,% of control remaining
1,CC(=O)Nc1ccc(-c2csc(N3CCN(C)CC3)n2)cc1 [CBK305865],132.055%
2,C1=C(CN2CCn3nc(CNc4cnccn4)cc3C2)CCCC1 [CBK307406],186.266%
3,CC(CC(=O)O)CC(=O)Nc1ccc(C(=O)O)cc1 (centres unmarked) [CBK265560],111.387%
4,Cc1ccc(C2=NN(C(=O)CCC(=O)O)C(c3cc4cccc(C)c4[nH]c3=O)C2)cc1 (centres unmarked) [CBK296927],103.319%
5,O=C(CNS(=O)(=O)Cc1ccccc1[N+](=O)[O-])Nc1ccc(F)cc1 [CBK042228],137.834%
6,COc1cc(C(=O)N2CCC3(CC2)NC(=O)c2cc(C)ccc2O3)cc(OC)c1C [CBK166273],125.168%
7,CCN(Cc1ccccc1)Cc1ccco1 [CBK261884],110.799%
8,O=C(O)COCc1cc(-c2ccc3c(c2)OCO3)on1 [CBK286883],106.616%
9,NC(=O)c1ccccc1NC(=S)NC(=O)c1cc2ccccc2o1 [CBK265633],100%
10,O=C(Nc1cccc(OC(=O)c2cc(S(=O)(=O)N3CCCCC3)ccc2Cl)c1)c1ccco1 [CBK262186],29.3851%
11,CCN1CCc2cc(-c3cncn3CCCn3nc(C)cc3C)ccc21 [CBK281572],105.211%
12,CN(C(=O)CN)c1nc2c(s1)CC(c1ccccc1)CC2 (centres unmarked) [CBK304298C],112.806%
13,O=C1NC(=O)C(c2ccccc2)(c2ccccn2)N1 (centres unmarked) [CBK288455],103.652%
14,N/C(=N\O)c1ccc(OC(F)(F)F)cc1 [CBK019865],142.716%
15,Cc1ccc(-c2csc3c(=O)[nH]c(N4CCCC(C(=O)NCc5cccnc5)C4)nc23)cc1 (centres unmarked) [CBK215546],145.903%
16,COc1cc(NC(=O)Nc2ccccc2OC)c(OC)cc1Cl [CBK270329],127.633%
17,O=C(NC(Cc1cccs1)c1nccs1)c1cccnc1 (centres unmarked) [CBK285133],107.41%
18,CN(C)Cc1ccccc1Cn1cncc1-c1cnn(C)c1 [CBK281764],116.555%
19,CCOc1cccc(CNc2nn[nH]n2)c1OCc1ccc(C)cc1 [CBK288127],100.334%
20,Cc1nn(Cc2c(F)cccc2Cl)c(C)c1NC(=O)c1cnn2c(C(F)F)cc(-c3ccccc3)nc12 [CBK267634],115.427%
21,Nc1nonc1-c1nc2ccccc2o1 [CBK009829],143.761%
22,O=C(CCCc1ccccc1)Nc1ccc(F)cc1[N+](=O)[O-] [CBK265446],119.294%
23,NC(=O)Cn1cc(CNC2(c3ccccc3)CC2)c2ccccc21 [CBK282776],79.8103%
24,O=C(O)CCn1cc(/C=C2\SC(=S)NC2=O)c(-c2cccc(Br)c2)n1 [CBK265287],100%
25,CNC(=O)c1sc2ccccc2c1C1CCN(S(=O)(=O)c2ccc(C)c(C)c2)C1 (centres unmarked) [CBK285877],109.513%
26,CCOC(=O)c1cc(-c2ccc(OC)cc2)nn1-c1ccc(C(=O)O)cc1 [CBK296133],109.972%

# Given as tab-separated lines: entries from further up.
row	SMILES	% of control remaining
3	CC(CC(=O)O)CC(=O)Nc1ccc(C(=O)O)cc1 (centres unmarked) [CBK265560]	111.387%
12	CN(C(=O)CN)c1nc2c(s1)CC(c1ccccc1)CC2 (centres unmarked) [CBK304298C]	112.806%
15	Cc1ccc(-c2csc3c(=O)[nH]c(N4CCCC(C(=O)NCc5cccnc5)C4)nc23)cc1 (centres unmarked) [CBK215546]	145.903%
20	Cc1nn(Cc2c(F)cccc2Cl)c(C)c1NC(=O)c1cnn2c(C(F)F)cc(-c3ccccc3)nc12 [CBK267634]	115.427%
